Data from publication PMC4526116.
These are yes or no findings as the source states them, for the method shown. Binding seen in cells or lysates may run through a third protein. Some results given as binding are weak or reduced against the parent protein; the word gives no strength. Sequences can lack the tags named with a protein.

Biological target: Flag-tagged wild-type UVRAG (UV irradiation resistance-associated gene protein) (human) (UniProt Q9P2Y5)
Experiment: co-IP; whole-cell lysates of 293T transfected with Flag-UVRAG^WT or Flag-UVRAG^FS, immunoprecipitated with anti-Flag, immunoblotted with anti-CEP63

binding: binds
B1: centrosome protein CEP63 (protein, UniProt Q96MT8 1-703)
chain: MEALLEGIQNRGHGGGFLTSCEAELQELMKQIDIMVAHKKSEWEGRTHALETCLKIREQELKSLRSQLDVTHKEVGMLHQQVEEHEKIKQEMTMEYKQELKKLHEELCILKRSYEKLQKKQMREFRGNTKNHREDRSEIERLTAKIEEFRQKSLDWEKQRLIYQQQVSSLEAQRKALAEQSEIIQAQLVNRKQKLESVELSSQSEIQHLSSKLERANDTICANELEIERLTMRVNDLVGTSMTVLQEQQQKEEKLRESEKLLEALQEEKRELKAALQSQENLIHEARIQKEKLQEKVKATNTQHAVEAIRPREESLAEKKYTSQGQGDLDSVLSQLNFTHTSEDLLQAEVTCLEGSLESVSATCKQLSQELMEKYEELKRMEAHNNEYKAEIKKLKEQILQGEQSYSSALEGMKMEISHLTQELHQRDITIASTKGSSSDMEKRLRAEMQKAEDKAVEHKEILDQLESLKLENRHLSEMVMKLELGLHEAKEISLADLQENYIEALNKLVSENQQLQKDLMNTKSQLEISTQMCKKQNDRIFKPTHSRTTEFKNTEFKPTHGQHRHDGIKTEHYKTDLHSPRGQASDSINPMSRVLSPLSPQISPCSSTRSLTSYSLCKTHSLPSALDTNEANFSDTMSESMNDQEEFISSCSLPVSPLGSIATRFLEEEELRSHHILERLDAHIEELKRESEKTVRQFTALK
